{"source": "paper PMC4906244", "key": {"[1]": {"test_system": "His6-ComPsub (Neisseria subflava NJ9703)", "assay": "SPR", "settings": "10-200 uM protein, SPR: 20 mM Tris pH 8, 150 mM NaCl, 0.05% Tween 20, 25 C, recombinant protein, protein details: N-terminal non-cleavable His6"}, "[2]": {"test_system": "MBP-ComPsub (Neisseria subflava NJ9703)", "assay": "EMSA", "settings": "0.8 uM protein, 2.5 mM Mg2+, EMSA: 20 mM Tris-Cl pH 8, 50 mM NaCl, ambient temperature, recombinant protein, label: biotin on DUSvar11b strand (S9)"}, "[3]": {"test_system": "MBP-ComPsub (Neisseria subflava NJ9703)", "assay": "competition EMSA", "settings": "2.5 mM Mg2+, EMSA: 20 mM Tris-Cl pH 8, 50 mM NaCl, ambient temperature, recombinant protein"}, "[4]": {"test_system": "His6-ComPsub (Neisseria subflava NJ9703)", "assay": "NMR titration (1H-15N HSQC CSP)", "settings": "100 uM protein, 4-120 uM DNA; NMR: 50 mM sodium phosphate pH 6, 50 mM NaCl, 10% D2O (295 K stated for the structure spectra); recombinant protein; protein details: N-terminal non-cleavable His6"}}, "note": "The exact form of at least one protein or probe is not confirmed. For part of these data: No signal at the amounts used counts as a negative. For part of these data: A weaker result is weaker than the reference pair of the same experiment.", "data": [{"sequence": "TGACCAAGGCCTGTCATCAAAC (double strand) [SDU ds primer (biotinylated)]", "values": [{"measurement": "binding result", "setting": "[1]; much lower Req than DUSvar1, label: biotin on SDU1b strand (S13)", "result": "binds more weakly"}]}, {"sequence": "TGACCAGGCCGTCTGAACAAAC (double strand) [DUSvar1 ds primer (biotinylated)]", "values": [{"measurement": "binding result", "setting": "[2]", "result": "binds"}]}, {"sequence": "TGACCACGACTTATAATCAAAC (double strand) [SUD ds primer (biotinylated)]", "values": [{"measurement": "binding result", "setting": "[1]; much lower Req than DUSvar1, not saturating, label: biotin on SUD1b strand (S11)", "result": "binds more weakly"}]}, {"sequence": "TGACCAGGCCGTCTGAACAAAC (double strand) [DUSvar1 ds primer (unlabeled)]", "values": [{"measurement": "binding result", "setting": "[3]; vs biotinylated DUSvar1, 0.7-180 pmol competitor", "result": "binds"}]}, {"sequence": "TGACCACGACTTATAATCAAAC (double strand) [SUD ds primer (unlabeled)]", "values": [{"measurement": "binding result", "setting": "[3]; vs biotinylated DUSvar1, no effect at 0.7-180 pmol", "result": "no binding"}]}, {"sequence": "CAGGCCGTCTGAAC (double strand) [DUSvar1bis ds primer (NMR)]", "values": [{"measurement": "binding result", "setting": "[4]", "result": "binds"}]}]}
